Measurements reported in PubChem BioAssay AID1508597 (Cure First, 2020).

Screen: 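Genes whose silencing sensitises or protects ovarian cancer cells against rucaparib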 (primary screen)
Cells: human ovarian carcinoma lines grown from tumours: OCI-P5x (papillary serous) and OCI-C5x (clear cell)
Reagents: siRNA pool against human genes, 1.25 pmol siRNA per well
Timing: 72 h or 96 h, depending on the cell culture
Conditions: rucaparib 20 µM (about IC30) or vehicle, present until read-out
Detection: 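Luminescent ATP-based viability assay read 72 or 96 h after transfection, depending on culture, given as normalised percent viability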
Direction: viability, normalised: higher = more viable cells remaining
Call rule: 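Active when normalised viability falls below 80 percent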
Calls: active = viability under 80%; inactive = viability 80% or more
Shown is an unselected part of about 2,100 reagents tested. 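Calls flag viability under 80% in either arm, not effects specific to rucaparib; the reference for percent is not stated.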 Reagent sequences are not shown. Not given: the 100% reference.

MORC2 (MORC family CW-type zinc finger 2), rucaparib or vehicle Rucaparib, cell line OCI-C5x (clear cell), technical replicate 1
- viability, normalised (%): 38.1
- call: active

MORC2 (MORC family CW-type zinc finger 2), rucaparib or vehicle Rucaparib, cell line OCI-C5x (clear cell), technical replicate 2
- viability, normalised (%): 28.7
- call: active

MORC2 (MORC family CW-type zinc finger 2), rucaparib or vehicle Rucaparib, cell line OCI-C5x (clear cell), technical replicate 3
- viability, normalised (%): 36.8
- call: active

MORC2 (MORC family CW-type zinc finger 2), rucaparib or vehicle Rucaparib, cell line OCI-P5x (serous), technical replicate 1
- viability, normalised (%): 38.1
- call: active

MORC2 (MORC family CW-type zinc finger 2), rucaparib or vehicle Rucaparib, cell line OCI-P5x (serous), technical replicate 2
- viability, normalised (%): 42.6
- call: active

MORC2 (MORC family CW-type zinc finger 2), rucaparib or vehicle Rucaparib, cell line OCI-P5x (serous), technical replicate 3
- viability, normalised (%): 34.7
- call: active

MORC2 (MORC family CW-type zinc finger 2), rucaparib or vehicle Vehicle, cell line OCI-C5x (clear cell), technical replicate 1
- viability, normalised (%): 36.4
- call: active

MORC2 (MORC family CW-type zinc finger 2), rucaparib or vehicle Vehicle, cell line OCI-C5x (clear cell), technical replicate 2
- viability, normalised (%): 36.6
- call: active

MORC2 (MORC family CW-type zinc finger 2), rucaparib or vehicle Vehicle, cell line OCI-C5x (clear cell), technical replicate 3
- viability, normalised (%): 40.9
- call: active

MORC2 (MORC family CW-type zinc finger 2), rucaparib or vehicle Vehicle, cell line OCI-P5x (serous), technical replicate 1
- viability, normalised (%): 42.4
- call: active

MORC2 (MORC family CW-type zinc finger 2), rucaparib or vehicle Vehicle, cell line OCI-P5x (serous), technical replicate 2
- viability, normalised (%): 48
- call: active

MORC2 (MORC family CW-type zinc finger 2), rucaparib or vehicle Vehicle, cell line OCI-P5x (serous), technical replicate 3
- viability, normalised (%): 51.7
- call: active

TLR7 (toll like receptor 7), rucaparib or vehicle Rucaparib, cell line OCI-C5x (clear cell), technical replicate 1
- viability, normalised (%): 70.8
- call: active

TLR7 (toll like receptor 7), rucaparib or vehicle Rucaparib, cell line OCI-C5x (clear cell), technical replicate 2
- viability, normalised (%): 61.9
- call: active

TLR7 (toll like receptor 7), rucaparib or vehicle Rucaparib, cell line OCI-C5x (clear cell), technical replicate 3
- viability, normalised (%): 53.5
- call: active

TLR7 (toll like receptor 7), rucaparib or vehicle Rucaparib, cell line OCI-P5x (serous), technical replicate 1
- viability, normalised (%): 60.3
- call: active

TLR7 (toll like receptor 7), rucaparib or vehicle Rucaparib, cell line OCI-P5x (serous), technical replicate 2
- viability, normalised (%): 49.3
- call: active

TLR7 (toll like receptor 7), rucaparib or vehicle Rucaparib, cell line OCI-P5x (serous), technical replicate 3
- viability, normalised (%): 50.3
- call: active

TLR7 (toll like receptor 7), rucaparib or vehicle Vehicle, cell line OCI-C5x (clear cell), technical replicate 1
- viability, normalised (%): 60.4
- call: active

TLR7 (toll like receptor 7), rucaparib or vehicle Vehicle, cell line OCI-C5x (clear cell), technical replicate 2
- viability, normalised (%): 54.9
- call: active

TLR7 (toll like receptor 7), rucaparib or vehicle Vehicle, cell line OCI-C5x (clear cell), technical replicate 3
- viability, normalised (%): 57.3
- call: active

TLR7 (toll like receptor 7), rucaparib or vehicle Vehicle, cell line OCI-P5x (serous), technical replicate 1
- viability, normalised (%): 74.5
- call: active

TLR7 (toll like receptor 7), rucaparib or vehicle Vehicle, cell line OCI-P5x (serous), technical replicate 2
- viability, normalised (%): 70.3
- call: active

TLR7 (toll like receptor 7), rucaparib or vehicle Vehicle, cell line OCI-P5x (serous), technical replicate 3
- viability, normalised (%): 91.3
- call: inactive

PCGF2 (polycomb group ring finger 2), rucaparib or vehicle Rucaparib, cell line OCI-C5x (clear cell), technical replicate 1
- viability, normalised (%): 51.8
- call: active

PCGF2 (polycomb group ring finger 2), rucaparib or vehicle Rucaparib, cell line OCI-C5x (clear cell), technical replicate 2
- viability, normalised (%): 40.1
- call: active

PCGF2 (polycomb group ring finger 2), rucaparib or vehicle Rucaparib, cell line OCI-C5x (clear cell), technical replicate 3
- viability, normalised (%): 36.4
- call: active

PCGF2 (polycomb group ring finger 2), rucaparib or vehicle Rucaparib, cell line OCI-P5x (serous), technical replicate 1
- viability, normalised (%): 33.5
- call: active

PCGF2 (polycomb group ring finger 2), rucaparib or vehicle Rucaparib, cell line OCI-P5x (serous), technical replicate 2
- viability, normalised (%): 33.9
- call: active

PCGF2 (polycomb group ring finger 2), rucaparib or vehicle Rucaparib, cell line OCI-P5x (serous), technical replicate 3
- viability, normalised (%): 42.3
- call: active

PCGF2 (polycomb group ring finger 2), rucaparib or vehicle Vehicle, cell line OCI-C5x (clear cell), technical replicate 1
- viability, normalised (%): 36.7
- call: active

PCGF2 (polycomb group ring finger 2), rucaparib or vehicle Vehicle, cell line OCI-C5x (clear cell), technical replicate 2
- viability, normalised (%): 30
- call: active

PCGF2 (polycomb group ring finger 2), rucaparib or vehicle Vehicle, cell line OCI-C5x (clear cell), technical replicate 3
- viability, normalised (%): 35.8
- call: active

PCGF2 (polycomb group ring finger 2), rucaparib or vehicle Vehicle, cell line OCI-P5x (serous), technical replicate 1
- viability, normalised (%): 39.8
- call: active

PCGF2 (polycomb group ring finger 2), rucaparib or vehicle Vehicle, cell line OCI-P5x (serous), technical replicate 2
- viability, normalised (%): 47.6
- call: active

PCGF2 (polycomb group ring finger 2), rucaparib or vehicle Vehicle, cell line OCI-P5x (serous), technical replicate 3
- viability, normalised (%): 69.6
- call: active

ACTL6A (actin like 6A), rucaparib or vehicle Rucaparib, cell line OCI-C5x (clear cell), technical replicate 1
- viability, normalised (%): 45
- call: active

ACTL6A (actin like 6A), rucaparib or vehicle Rucaparib, cell line OCI-C5x (clear cell), technical replicate 2
- viability, normalised (%): 49.1
- call: active

ACTL6A (actin like 6A), rucaparib or vehicle Rucaparib, cell line OCI-C5x (clear cell), technical replicate 3
- viability, normalised (%): 53.4
- call: active

ACTL6A (actin like 6A), rucaparib or vehicle Rucaparib, cell line OCI-P5x (serous), technical replicate 1
- viability, normalised (%): 56.6
- call: active

ACTL6A (actin like 6A), rucaparib or vehicle Rucaparib, cell line OCI-P5x (serous), technical replicate 2
- viability, normalised (%): 46.4
- call: active

ACTL6A (actin like 6A), rucaparib or vehicle Rucaparib, cell line OCI-P5x (serous), technical replicate 3
- viability, normalised (%): 49.6
- call: active

ACTL6A (actin like 6A), rucaparib or vehicle Vehicle, cell line OCI-C5x (clear cell), technical replicate 1
- viability, normalised (%): 51.8
- call: active

ACTL6A (actin like 6A), rucaparib or vehicle Vehicle, cell line OCI-C5x (clear cell), technical replicate 2
- viability, normalised (%): 49.6
- call: active

ACTL6A (actin like 6A), rucaparib or vehicle Vehicle, cell line OCI-C5x (clear cell), technical replicate 3
- viability, normalised (%): 47
- call: active

ACTL6A (actin like 6A), rucaparib or vehicle Vehicle, cell line OCI-P5x (serous), technical replicate 1
- viability, normalised (%): 46.1
- call: active

ACTL6A (actin like 6A), rucaparib or vehicle Vehicle, cell line OCI-P5x (serous), technical replicate 2
- viability, normalised (%): 68.2
- call: active

ACTL6A (actin like 6A), rucaparib or vehicle Vehicle, cell line OCI-P5x (serous), technical replicate 3
- viability, normalised (%): 72
- call: active

6 consecutive entries already listed, quoted:
MORC2 (MORC family CW-type zinc finger 2), rucaparib or vehicle Rucaparib, cell line OCI-C5x (clear cell), technical replicate 1
- viability, normalised (%): 38.1
- call: active

MORC2 (MORC family CW-type zinc finger 2), rucaparib or vehicle Rucaparib, cell line OCI-C5x (clear cell), technical replicate 2
- viability, normalised (%): 28.7
- call: active

MORC2 (MORC family CW-type zinc finger 2), rucaparib or vehicle Rucaparib, cell line OCI-C5x (clear cell), technical replicate 3
- viability, normalised (%): 36.8
- call: active

MORC2 (MORC family CW-type zinc finger 2), rucaparib or vehicle Rucaparib, cell line OCI-P5x (serous), technical replicate 1
- viability, normalised (%): 38.1
- call: active

MORC2 (MORC family CW-type zinc finger 2), rucaparib or vehicle Rucaparib, cell line OCI-P5x (serous), technical replicate 2
- viability, normalised (%): 42.6
- call: active

MORC2 (MORC family CW-type zinc finger 2), rucaparib or vehicle Rucaparib, cell line OCI-P5x (serous), technical replicate 3
- viability, normalised (%): 34.7
- call: active
